These are yes or no findings as the source states them, for the method shown. In cells and extracts the contact can be indirect. Some binding calls cover weakened binding; strength is not graded here.
What was measured:
PCDHGB7-flag = PCDHGB7-flag (UniProt Q9Y5F8); test: co-IP; lysates of TNBC cells transfected with empty vector or PCDHGB7-flag; anti-flag, anti-MYC or control IgG; protein A/G-agarose beads; immunoblot
[1] = biological target: PCDHGB7 in Hs578T cells (PLA) (UniProt Q9Y5F8); test: proximity ligation; PLA in Hs578T cells

Chains of the proteins cited; added tags and fusions are not shown. Residues count along the entry.
UniProt Q9Y5F8, residues 31-929: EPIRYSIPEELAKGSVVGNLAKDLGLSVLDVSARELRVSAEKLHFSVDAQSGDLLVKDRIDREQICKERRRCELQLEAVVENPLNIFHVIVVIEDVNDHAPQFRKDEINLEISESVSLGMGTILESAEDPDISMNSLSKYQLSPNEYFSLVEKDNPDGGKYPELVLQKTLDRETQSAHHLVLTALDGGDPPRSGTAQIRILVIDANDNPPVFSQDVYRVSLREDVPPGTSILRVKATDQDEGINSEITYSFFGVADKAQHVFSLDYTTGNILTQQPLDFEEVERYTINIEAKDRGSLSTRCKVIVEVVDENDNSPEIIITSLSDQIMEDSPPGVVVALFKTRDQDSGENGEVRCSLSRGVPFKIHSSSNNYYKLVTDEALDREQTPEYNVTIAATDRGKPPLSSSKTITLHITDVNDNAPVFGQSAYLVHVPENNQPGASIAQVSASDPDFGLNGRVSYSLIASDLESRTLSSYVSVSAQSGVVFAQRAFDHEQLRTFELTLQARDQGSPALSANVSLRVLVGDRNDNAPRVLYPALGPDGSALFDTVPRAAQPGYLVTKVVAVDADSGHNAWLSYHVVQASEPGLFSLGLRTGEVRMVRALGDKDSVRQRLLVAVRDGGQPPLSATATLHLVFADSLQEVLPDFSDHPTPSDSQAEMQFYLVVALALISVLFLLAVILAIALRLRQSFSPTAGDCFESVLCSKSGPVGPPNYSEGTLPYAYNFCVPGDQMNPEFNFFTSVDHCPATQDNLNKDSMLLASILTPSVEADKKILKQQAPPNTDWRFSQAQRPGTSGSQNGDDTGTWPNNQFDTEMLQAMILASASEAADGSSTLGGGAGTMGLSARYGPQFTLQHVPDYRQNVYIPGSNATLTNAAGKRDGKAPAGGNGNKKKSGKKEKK
UniProt P01106: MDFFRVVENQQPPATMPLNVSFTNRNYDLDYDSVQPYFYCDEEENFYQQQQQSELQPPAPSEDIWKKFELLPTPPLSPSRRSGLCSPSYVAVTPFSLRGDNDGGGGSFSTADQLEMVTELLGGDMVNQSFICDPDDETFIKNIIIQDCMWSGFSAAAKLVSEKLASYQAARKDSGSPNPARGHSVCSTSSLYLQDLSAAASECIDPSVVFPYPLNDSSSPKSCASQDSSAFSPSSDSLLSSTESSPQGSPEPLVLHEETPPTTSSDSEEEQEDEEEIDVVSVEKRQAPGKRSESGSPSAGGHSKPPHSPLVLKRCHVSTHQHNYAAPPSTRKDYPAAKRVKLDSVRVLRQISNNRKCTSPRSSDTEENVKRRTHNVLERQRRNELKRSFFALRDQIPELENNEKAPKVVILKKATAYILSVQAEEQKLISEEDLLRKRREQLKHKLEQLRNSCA
UniProt P13010: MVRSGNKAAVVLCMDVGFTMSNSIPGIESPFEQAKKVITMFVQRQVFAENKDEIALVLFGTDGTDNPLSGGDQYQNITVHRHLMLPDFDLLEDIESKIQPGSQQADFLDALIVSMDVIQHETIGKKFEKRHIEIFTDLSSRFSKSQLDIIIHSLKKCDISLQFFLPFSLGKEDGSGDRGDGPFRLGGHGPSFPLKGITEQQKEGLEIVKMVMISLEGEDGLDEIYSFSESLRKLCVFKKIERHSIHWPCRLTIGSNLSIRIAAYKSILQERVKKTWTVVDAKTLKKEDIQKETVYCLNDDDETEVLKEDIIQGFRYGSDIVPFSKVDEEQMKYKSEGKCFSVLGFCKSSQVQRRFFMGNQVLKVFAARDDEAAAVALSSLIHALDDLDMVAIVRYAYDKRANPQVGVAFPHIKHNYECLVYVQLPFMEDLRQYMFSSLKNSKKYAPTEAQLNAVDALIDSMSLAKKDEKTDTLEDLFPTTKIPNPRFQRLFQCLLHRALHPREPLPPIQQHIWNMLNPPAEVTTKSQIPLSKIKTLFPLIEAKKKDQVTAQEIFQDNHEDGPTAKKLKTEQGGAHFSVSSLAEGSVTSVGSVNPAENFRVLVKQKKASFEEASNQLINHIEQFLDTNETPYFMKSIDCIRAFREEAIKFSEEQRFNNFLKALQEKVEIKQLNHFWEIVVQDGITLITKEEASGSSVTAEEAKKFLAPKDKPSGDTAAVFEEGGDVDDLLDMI

Row | binding (PCDHGB7-flag) | binding [1] | Substance
1 | no binding |  | MYC (from UniProt P01106 1-454)
2 |  | binds | x‐ray repair cross‐complementary 5 (XRCC5) (from UniProt P13010 1-732)

Source: article PMC12405659
